{"sequences": {"note": "Amino acid sequences for entries named in this document (tags omitted).", "UniProt P09382": "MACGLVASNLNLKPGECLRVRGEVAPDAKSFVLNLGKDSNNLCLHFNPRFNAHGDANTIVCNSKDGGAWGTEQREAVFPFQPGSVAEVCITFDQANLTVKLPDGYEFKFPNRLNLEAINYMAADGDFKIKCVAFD"}, "source": "paper PMC4654803", "target": "CA125 (human (endogenous in OVCAR-3)) (UniProt Q8WXI7)", "assay": "co-IP; supernatant of whole cell lysates of galectin-1-pIRES2-ZsGreen1 transfected OVCAR-3 cells; immunoprecipitated with the primary antibodies or non-specific IgG as negative control; protein G magnetic beads, 4 °C overnight; western blot with anti-galectin-1 and anti-CA125 mouse monoclonal antibodies", "note": "Results are given in words; binding and its absence hold for the method and conditions named. In cells and extracts the contact can be indirect. Some results given as binding are weak or reduced against the parent protein; the word gives no strength."}
{"substance": "galectin-1 (from UniProt P09382 1-135)", "values": [{"measurement": "binding", "result": "binds"}]}
